# Measurements as given in article PMC3048431.
# Chains of the proteins cited; added tags and fusions are not shown. Residues count along the entry.
# UniProt A2A884, 106-2013: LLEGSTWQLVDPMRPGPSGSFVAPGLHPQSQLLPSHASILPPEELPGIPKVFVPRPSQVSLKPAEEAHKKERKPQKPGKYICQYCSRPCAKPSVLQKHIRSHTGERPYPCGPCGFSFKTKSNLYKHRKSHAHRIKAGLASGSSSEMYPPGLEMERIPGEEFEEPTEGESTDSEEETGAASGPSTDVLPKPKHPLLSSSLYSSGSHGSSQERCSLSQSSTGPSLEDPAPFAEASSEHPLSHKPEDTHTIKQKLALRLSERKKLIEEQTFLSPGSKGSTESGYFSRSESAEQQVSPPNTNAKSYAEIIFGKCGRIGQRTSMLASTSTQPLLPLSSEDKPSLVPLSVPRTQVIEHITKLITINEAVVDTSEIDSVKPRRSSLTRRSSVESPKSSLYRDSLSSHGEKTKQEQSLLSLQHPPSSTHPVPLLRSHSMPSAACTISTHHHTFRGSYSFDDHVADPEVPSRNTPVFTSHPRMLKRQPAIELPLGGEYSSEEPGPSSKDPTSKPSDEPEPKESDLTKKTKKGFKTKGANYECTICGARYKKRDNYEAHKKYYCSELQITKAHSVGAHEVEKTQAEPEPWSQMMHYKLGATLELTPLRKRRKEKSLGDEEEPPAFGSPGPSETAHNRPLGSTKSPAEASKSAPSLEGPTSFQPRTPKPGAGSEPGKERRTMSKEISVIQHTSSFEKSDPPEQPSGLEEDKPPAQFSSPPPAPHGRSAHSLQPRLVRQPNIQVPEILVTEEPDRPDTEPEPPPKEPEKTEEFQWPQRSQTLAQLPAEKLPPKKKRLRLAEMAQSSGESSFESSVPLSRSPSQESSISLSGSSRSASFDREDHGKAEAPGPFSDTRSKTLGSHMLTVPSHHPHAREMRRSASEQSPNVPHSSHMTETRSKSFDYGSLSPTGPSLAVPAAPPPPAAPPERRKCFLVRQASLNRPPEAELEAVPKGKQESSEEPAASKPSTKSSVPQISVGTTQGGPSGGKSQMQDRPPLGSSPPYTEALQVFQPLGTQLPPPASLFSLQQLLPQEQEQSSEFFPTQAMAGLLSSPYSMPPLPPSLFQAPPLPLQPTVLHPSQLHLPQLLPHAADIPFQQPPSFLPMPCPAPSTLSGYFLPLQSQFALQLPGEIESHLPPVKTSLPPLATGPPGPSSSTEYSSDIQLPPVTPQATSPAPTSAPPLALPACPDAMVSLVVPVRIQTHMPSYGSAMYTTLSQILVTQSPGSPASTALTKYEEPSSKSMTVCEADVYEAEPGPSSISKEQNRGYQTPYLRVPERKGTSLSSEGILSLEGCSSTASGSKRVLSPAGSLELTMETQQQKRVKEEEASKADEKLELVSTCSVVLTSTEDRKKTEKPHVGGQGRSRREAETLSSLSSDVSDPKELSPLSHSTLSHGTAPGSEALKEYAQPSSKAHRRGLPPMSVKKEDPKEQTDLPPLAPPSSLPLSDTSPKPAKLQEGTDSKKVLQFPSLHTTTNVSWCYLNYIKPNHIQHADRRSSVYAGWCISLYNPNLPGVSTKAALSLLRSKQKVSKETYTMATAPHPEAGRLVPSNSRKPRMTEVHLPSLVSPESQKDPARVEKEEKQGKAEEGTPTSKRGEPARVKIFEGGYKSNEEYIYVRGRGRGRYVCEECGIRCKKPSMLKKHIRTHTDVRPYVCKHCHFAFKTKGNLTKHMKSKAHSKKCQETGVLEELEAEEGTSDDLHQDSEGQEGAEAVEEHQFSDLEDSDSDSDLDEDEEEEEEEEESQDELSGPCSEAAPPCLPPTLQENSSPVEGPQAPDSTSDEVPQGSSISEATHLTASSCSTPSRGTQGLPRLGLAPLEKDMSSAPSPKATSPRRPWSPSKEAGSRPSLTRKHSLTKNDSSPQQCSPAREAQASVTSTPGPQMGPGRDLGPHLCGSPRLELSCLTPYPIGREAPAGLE
# UniProt A2A884, whole entry: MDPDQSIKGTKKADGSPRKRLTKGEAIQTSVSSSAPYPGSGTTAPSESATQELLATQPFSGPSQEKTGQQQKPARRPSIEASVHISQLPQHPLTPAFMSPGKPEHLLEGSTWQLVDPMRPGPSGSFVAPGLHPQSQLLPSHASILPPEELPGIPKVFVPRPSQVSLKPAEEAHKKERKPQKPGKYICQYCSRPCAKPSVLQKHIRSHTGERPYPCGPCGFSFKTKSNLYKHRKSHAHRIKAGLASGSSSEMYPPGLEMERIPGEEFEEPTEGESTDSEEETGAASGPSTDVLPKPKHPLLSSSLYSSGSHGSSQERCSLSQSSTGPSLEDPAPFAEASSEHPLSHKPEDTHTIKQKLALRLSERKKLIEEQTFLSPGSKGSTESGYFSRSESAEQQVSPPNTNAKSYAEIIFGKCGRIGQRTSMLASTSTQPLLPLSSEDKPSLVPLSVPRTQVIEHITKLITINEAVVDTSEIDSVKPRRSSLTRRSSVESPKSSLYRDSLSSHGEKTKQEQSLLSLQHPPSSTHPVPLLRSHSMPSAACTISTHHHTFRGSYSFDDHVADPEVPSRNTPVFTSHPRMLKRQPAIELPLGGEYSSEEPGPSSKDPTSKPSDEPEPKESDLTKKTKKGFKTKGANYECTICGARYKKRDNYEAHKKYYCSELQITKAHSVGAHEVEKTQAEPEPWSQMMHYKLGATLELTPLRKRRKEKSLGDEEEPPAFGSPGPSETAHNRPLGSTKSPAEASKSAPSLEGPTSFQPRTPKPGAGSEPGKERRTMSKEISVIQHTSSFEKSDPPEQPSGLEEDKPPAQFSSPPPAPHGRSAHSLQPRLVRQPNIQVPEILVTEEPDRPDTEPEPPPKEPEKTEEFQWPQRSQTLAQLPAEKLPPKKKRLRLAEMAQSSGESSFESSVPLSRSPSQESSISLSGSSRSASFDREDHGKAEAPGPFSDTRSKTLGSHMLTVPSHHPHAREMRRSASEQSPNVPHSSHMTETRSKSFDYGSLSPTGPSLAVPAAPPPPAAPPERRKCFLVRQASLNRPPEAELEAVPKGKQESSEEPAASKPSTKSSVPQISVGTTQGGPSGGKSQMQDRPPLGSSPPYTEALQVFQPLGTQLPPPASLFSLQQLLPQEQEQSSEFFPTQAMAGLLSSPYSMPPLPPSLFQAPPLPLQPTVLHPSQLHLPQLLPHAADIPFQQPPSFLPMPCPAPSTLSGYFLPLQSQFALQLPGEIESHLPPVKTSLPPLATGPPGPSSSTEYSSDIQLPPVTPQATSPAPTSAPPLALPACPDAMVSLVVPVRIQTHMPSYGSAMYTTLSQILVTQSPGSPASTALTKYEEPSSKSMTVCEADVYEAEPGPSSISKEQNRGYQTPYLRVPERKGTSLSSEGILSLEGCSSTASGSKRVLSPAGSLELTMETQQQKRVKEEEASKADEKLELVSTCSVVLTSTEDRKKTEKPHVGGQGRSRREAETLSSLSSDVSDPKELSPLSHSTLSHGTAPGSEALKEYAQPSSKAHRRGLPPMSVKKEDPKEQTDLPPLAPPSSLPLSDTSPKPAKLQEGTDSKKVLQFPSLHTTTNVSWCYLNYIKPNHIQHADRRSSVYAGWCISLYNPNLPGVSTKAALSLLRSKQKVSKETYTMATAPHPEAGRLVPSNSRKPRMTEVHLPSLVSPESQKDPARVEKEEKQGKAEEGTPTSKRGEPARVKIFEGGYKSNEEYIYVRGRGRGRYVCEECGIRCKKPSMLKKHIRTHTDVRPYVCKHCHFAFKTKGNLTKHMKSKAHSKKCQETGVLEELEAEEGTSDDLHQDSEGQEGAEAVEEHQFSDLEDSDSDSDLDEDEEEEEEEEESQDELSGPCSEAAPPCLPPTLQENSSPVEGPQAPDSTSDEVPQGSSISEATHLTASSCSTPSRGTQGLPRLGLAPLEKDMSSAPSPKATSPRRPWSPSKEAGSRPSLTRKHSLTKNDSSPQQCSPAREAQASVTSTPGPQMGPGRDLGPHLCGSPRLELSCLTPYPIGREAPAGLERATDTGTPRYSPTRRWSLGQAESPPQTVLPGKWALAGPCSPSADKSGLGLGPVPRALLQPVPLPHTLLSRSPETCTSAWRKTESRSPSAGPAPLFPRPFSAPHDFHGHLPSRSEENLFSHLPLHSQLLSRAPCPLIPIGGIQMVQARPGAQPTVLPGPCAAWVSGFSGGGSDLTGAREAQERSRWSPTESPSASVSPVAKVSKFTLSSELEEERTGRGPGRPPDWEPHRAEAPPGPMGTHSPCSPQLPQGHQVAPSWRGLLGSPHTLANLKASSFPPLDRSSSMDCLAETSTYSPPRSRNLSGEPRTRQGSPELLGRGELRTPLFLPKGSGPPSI
# For at least one entry, the source does not settle the construct or the ends of the probe. At least one result comes from cells or an extract, where the contact may be indirect.
# Experiments:
# [1] = molecular target: ZAS3 recombinant (aa 106-2013) (UniProt A2A884); test: EMSA with antibody supershift (complex abolished); conditions: nuclear extract 2-5 ug, complex C4 only in ZAS3 transfectants, protein and probe incubated 10 min, then ZAS3 antibody 15 min, pH and temperature not given (cites ref 36), protein in an extract, label: 32P-dCTP (Klenow)
# ZAS3 endogenous = ZAS3 endogenous (UniProt A2A884); test: EMSA with antibody supershift (complex abolished); conditions: nuclear extract 2-5 ug, complex C2, protein and probe incubated 10 min, then ZAS3 antibody 15 min, pH and temperature not given (cites ref 36), protein in an extract, label: 32P-dCTP (Klenow)
sequence,measurement,setting,value
TTCTGGGGAAGTCCAGTGCTCACATGACCCA (double strand) [mouse TRAP proximal enhancer probe (-55 to -26)],binding result,[1],binds
same,binding result,ZAS3 endogenous,binds
